In PubChem BioAssay AID504834 (National Center for Advancing Translational Sciences (NCATS), 2011):
Among all 320,000 compounds or so, about 22,000 (6.9%) were called active. This list was built around the results that the source calls inconclusive (neither active nor inactive); the mix of calls is not that of the screen. Calls come from the whole dose curve; as a rule, active = well fitted inhibition curve with a large enough effect; inconclusive = small, poorly fitted or top-dose-only effect, or another doubt; inactive = no such curve, though single readings can be large or run the other way. A potency beside an inconclusive call is a rough fit, not a confirmed value.

Assay: Primary qHTS for delayed death inhibitors of the malarial parasite plastid, 96 hour incubation
Settings: P. falciparum luciferase reporter growth; series mostly up to 28.7 µM
How it was run: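 Delayed-death screen, second-generation endpoint: infected erythrocytes, 2% hematocrit, 0.05% parasitemia final; 96 hours at 37 C, 5% CO2; luciferase detection reagent; luminescence decrease equals reduced growth.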
% is set by controls: 0 for no effect and ±100 for the full control effect; potency is the fitted concentration of half-maximal effect.

Row | Structure (SMILES) | Potency | activity change, negative = inhibition
1 | CCN(CC)C(=O)C1CC(=O)OC1(C)C (configuration not stated) | inactive | 
2 | COc1ccc(C(=O)NCC(c2cccs2)N2CCOCC2)cc1OC (configuration not stated) | inactive | 
3 | CCOC(=O)c1cc(CC)sc1N1C(=O)CC(Sc2ncccc2C(=O)O)C1=O (configuration not stated) |  | inactive: 14.3% [at 5.75 µM]
4 | CCC(C(=O)NCc1ccco1)N(C(=O)CNS(=O)(=O)c1ccc(C)cc1)c1ccccc1OC (configuration not stated) | inactive | 
5 | O=C(COc1ccc2ccccc2c1)N1CCN(Cc2c[nH]c3ccccc23)CC1 | active: 3.29 µM | 
6 | CCOc1ccccc1NC(=O)CCNS(=O)(=O)c1cccc2nsnc12 | inactive | 
7 | S=c1[nH]c(-c2ccccc2)cn1-c1ccccc1 | inconclusive: 9.28 µM [inhibitor, partial curve] | 
8 | Cc1cccc(C(=O)NC2CCN(S(=O)(=O)c3ccc(F)cc3)CC2)c1 | inconclusive: 14.7 µM [inhibitor, single point] | 
9 | CC(C)CCNC(=O)c1cccc(S(=O)(=O)N2CCc3ccccc32)c1 | inconclusive: 11.7 µM [inhibitor, single point] | 
10 | O=C1C(NS(=O)(=O)c2cccs2)=C(N2CCN(Cc3ccccc3)CC2)C(=O)c2ccccc21 | inconclusive: 1.04 µM [inhibitor, full curve] | 
11 | COc1ccc(NC(=S)N/N=C2\CC(C)(C)Oc3ccc(OC)cc32)cc1 | inconclusive: 9.28 µM [inhibitor, partial curve] | 
12 | CCOc1ccc(NC(=O)C/C(C)=N/NC(=O)COc2ccc(Br)cc2C)cc1 | inactive | 
13 | COc1ccc(NC(=O)CC(C)NCCCN2CCCC2=O)cc1 (configuration not stated) | inactive | 
14 | COc1cccc2c1Oc1ncccc1N(C(=O)CCC(=O)NCc1cccc(C)c1)C2 | inconclusive: 18.5 µM [inhibitor, single point] | 
15 | COc1ccc2nc(/N=C(\N)NC(=O)N3c4ccccc4Sc4ccccc43)nc(C)c2c1 | inconclusive: 8.28 µM [inhibitor, partial curve, poor fit] | 
16 | O=C(O)[C@H](CC(=O)N1C[C@H]2CCCC[C@H]2C1)Cc1ccccc1 | inactive | 
17 | CCN(c1ccccc1)S(=O)(=O)c1ccc2[nH]c(=O)[nH]c2c1 | inconclusive: 13.1 µM [inhibitor, partial curve] | 
18 | CC(=O)c1cccc(NC(=O)Nc2nc(C)cc(C)n2)c1 | inconclusive: 11.7 µM [inhibitor, single point] | 
19 | COc1ccc(C(=O)/C(C#N)=N/Nc2ccc([N+](=O)[O-])cc2)cc1 | inconclusive: 4.15 µM [inhibitor, partial curve, poor fit] | 
20 | O=C(Nc1cccc(C(=O)N2CCOCC2)c1)c1ccccc1Cl | inconclusive: 11.7 µM [inhibitor, partial curve, poor fit] | 
21 | O=C(NCc1ccccc1)C1CCCN(c2cnccn2)C1 (configuration not stated) | inconclusive: 18.5 µM [inhibitor, single point] | 
22 | CN(C)c1ccc(C(=O)Nc2cccc(S(=O)(=O)N3CCCC3)c2)cc1 | inconclusive: 13.1 µM [inhibitor, single point] | 
23 | CCOc1ccc(CC(=O)C2=C(N3CCOCC3)CC(C)(C)CC2=O)cc1OCC | active: 6.57 µM | 

As entered above:
Value of S=c1[nH]c(-c2ccccc2)cn1-c1ccccc1 under Potency: inconclusive: 9.28 µM [inhibitor, partial curve]
Value of CCN(c1ccccc1)S(=O)(=O)c1ccc2[nH]c(=O)[nH]c2c1 under Potency: inconclusive: 13.1 µM [inhibitor, partial curve]
Value of COc1ccc(C(=O)NCC(c2cccs2)N2CCOCC2)cc1OC (configuration not stated) under Potency: inactive

(list continues)

Row | Structure (SMILES) | Potency | activity change, negative = inhibition
24 | CCc1c(SCCC(=O)O)nc2ccccc2c1C | inconclusive: 10.4 µM [inhibitor, partial curve, poor fit] | 
25 | CCNc1nc2c(c(=O)n(C)c(=O)n2C)n1Cc1ccc(Cl)cc1 | inconclusive: 0.0037 µM [inhibitor, full curve, poor fit] | 
26 | COc1ccc(-c2csc3ncnc(N4CCN(S(=O)(=O)c5cccc(C(F)(F)F)c5)CC4)c23)cc1 | inactive | 
27 | CC1(C)CC(NC(=O)c2cccc(S(=O)(=O)Nc3cccc(Cl)c3)c2)CC(C)(C)N1 | active: 4.65 µM | 
28 | CCOc1ccccc1N1CCN(S(=O)(=O)c2cc(C)ccc2OC)CC1 | inconclusive: 9.28 µM [inhibitor, partial curve, poor fit] | 
29 | Cc1ccccc1N1CCN(C2CCCN(C(=O)c3csc(C(C)C)n3)C2)CC1 (configuration not stated) | inconclusive: 13.1 µM [inhibitor, single point] | 
30 | CO/N=C(\Cn1ncc(N2CCOCC2)c(Br)c1=O)c1ccc(Cl)cc1 | inconclusive: 18.5 µM [inhibitor, single point] | 
31 | COc1ccccc1CN1CC(C(=O)N(C)CCc2nc3ccc(F)cc3[nH]2)CCC1=O (configuration not stated) | active: 10.4 µM | 
32 | COc1ccccc1C(=O)Nc1ccc(OCC(=O)N2CCCCC2C)cc1 (configuration not stated) | inconclusive: 20.8 µM [inhibitor, single point] | 
33 | CC(=O)c1cccc(NC(=O)c2ccc(S(=O)(=O)N3CCCCC3)cc2)c1 | inconclusive: 18.5 µM [inhibitor, single point] | 
34 | Cc1ccc(C)c(N2CCN(C(=O)c3ccc(N4CCOCC4)c([N+](=O)[O-])c3)CC2)c1 | inactive | 
35 | CCn1ccc2c(OCC(=O)NCCc3ccc(OC)c(OC)c3)cccc2c1=O | inconclusive: 8.28 µM [inhibitor, partial curve, poor fit] | 
36 | CCCOc1ccc(C(=O)Nc2ccc(S(=O)(=O)NC3=NCCCCC3)cc2)cc1 | active: 10.4 µM | 
37 | COc1ccc(C(=O)Nc2cnc3ccccn3c2=O)cc1 | inconclusive: 0.657 µM [inhibitor, partial curve, poor fit] | 
38 | CCOC(=O)c1sc(NC(=O)COC(=O)Cn2cnc3ccccc32)c(C(=O)OCC)c1C | inconclusive: 13.1 µM [inhibitor, single point] | 
39 | CC1(C)Cc2c(C#N)c(NCCCO)nc(-c3ccccc3)c2CO1 | inconclusive: 14.7 µM [inhibitor, partial curve, poor fit] | 
40 | Brc1ccc(C2=Nn3c(nnc3-c3cccnc3)SC2)s1 | inconclusive: 20.8 µM [inhibitor, partial curve, poor fit] | 
41 | NS(=O)(=O)c1ccc(N/C=C\C(=O)c2cccc3ccccc23)cc1 | inconclusive: 14.7 µM [inhibitor, partial curve, poor fit] | 
42 | CCSc1nnc(N2C(=O)c3ccc(C(=O)c4ccc(C(=O)O)cc4)cc3C2=O)s1 | active: 10.4 µM | 
43 | COc1ccc(C2=NN(C(=O)CSc3cn(C)c4ccccc34)C(c3ccc(OC)cc3)C2)cc1 (configuration not stated) | inconclusive: 11.7 µM [inhibitor, partial curve] | 
44 | CCCCCC(=O)Nc1nc(C)c(-c2csc(Nc3cc(OC)ccc3OC)n2)s1 | active: 11.7 µM | 
45 | COc1ccc(CC2(CO)CCN(S(=O)(=O)c3sccc3C)CC2)cc1 | active: 11.7 µM | 
46 | Cc1cccc(NC(=O)CCNS(=O)(=O)c2cc(Br)cnc2N)c1C | inactive | 

Row | Structure (SMILES) | Potency | activity change, negative = inhibition
47 | O=C1CN(C(=O)/C=C/c2ccc(Cl)cc2)c2ccccc2N1 | inconclusive: 5.86 µM [inhibitor, partial curve] | 
48 | O=C(N/N=C/c1oc(O)c2ccccc12)c1ccccc1O | inactive | 
49 | C[C@@H]1C[C@H]2[C@@H]3CCC4=CC(=O)C=C[C@]4(C)[C@@]3(Cl)[C@@H](O)C[C@]2(C)[C@@]1(OC(=O)c1ccco1)C(=O)CCl | active: 2.08 µM | 
50 | CCCCCn1c(NC(=O)c2ccco2)c(S(=O)(=O)c2ccc(C)cc2)c2nc3ccccc3nc21 | inconclusive: 11.7 µM [inhibitor, single point] | 
51 | CC(C)(C)n1nc2c(c1NC(=O)COc1ccc3ccccc3c1)CS(=O)(=O)C2 | inconclusive: 18.5 µM [inhibitor, single point] | 
52 | COC(=O)c1cc(=O)n2c(-c3ccc(OC)cc3)csc2n1 | inconclusive: 0.928 µM [inhibitor, full curve, poor fit] | 
53 | Cc1nc(N/N=C/c2ccc(O)cc2)c2cnn(-c3ccccc3)c2n1 | inconclusive: 0.233 µM [inhibitor, full curve, poor fit] | 
54 | O=C(Cn1ncc2c(=O)oc3ccccc3c21)N1CCCN(Cc2ccccc2F)C1 | inconclusive: 8.28 µM [inhibitor, partial curve] | 
55 | CCOc1cc(N2CCOCC2)c(OCC)cc1NC(=O)CN1CCN(Cc2ccc3c(c2)OCO3)CC1 | inconclusive: 4.15 µM [inhibitor, single point] | 
56 | Cc1ccc(C(=O)C(C(=O)/C=C/c2ccccc2)=C2SCCCS2)cc1 | active: 9.28 µM | 
57 | CN1CCCN(C(c2ccccc2)c2ccc(Cl)cc2)CC1 (configuration not stated) | active: 6.75 µM | 
58 | CC1=Nc2ccccc2/C1=C/c1sc(=N)n(-c2nccs2)c1O | inactive | 
59 | CCC(C)NC(=O)C1CCN(c2nc(C)cc(C)n2)CC1 (configuration not stated) | inconclusive: 18.5 µM [inhibitor, single point] | 
60 | CC(C)(C)NC(=O)CSc1nccn1Cc1ccccc1 | inconclusive: 20.8 µM [inhibitor, partial curve, poor fit] | 
61 | Cc1ccc(S(=O)(=O)N2CCN(C(C)C(=O)N3CCCc4ccccc43)CC2)cc1 (configuration not stated) | inconclusive: 3.29 µM [inhibitor, full curve, poor fit] | 
62 | COc1cccc(N2CCN(C(=O)CC(C)(C)CC3=NS(=O)(=O)c4ccccc4N3)CC2)c1 | inconclusive: 18.5 µM [inhibitor, single point] | 
63 | CCN(C(=O)CN1CCOCC1)C1(C)C(=O)c2ccccc2C1=O | inactive | 
64 | O=C(OCc1ccc(F)cc1)c1cccnc1Cl | inactive | 
65 | COc1cc2c(cc1OC)C(c1ccc(SC)cc1)CC(=O)N2 (configuration not stated) | inconclusive: 11.7 µM [inhibitor, partial curve] | 
66 | CCOCCn1c(N2CCN(c3ccc(OC)cc3)CC2)nc2c1c(=O)[nH]c(=O)n2C | inconclusive: 4.15 µM [inhibitor, single point] | 
67 | COc1ccc(S(=O)(=O)N(C)c2nc3ccccc3n3c(CC(C)C)nnc23)cc1 | inconclusive: 0.928 µM [inhibitor, full curve, poor fit] | 
